Patent US20030207263
For some assays here: Negatives hold for the conditions tested. For some assays here: At least one result comes from cells or an extract, where the contact may be indirect. For some assays here: For at least one entry, the source does not settle the construct or the ends of the probe.

Chains of the proteins cited; added tags and fusions are not shown. A change or cut given only in a name is not applied to a line headed by its entry. A line that says so, or that is headed by a name, gives the form on record, which may keep a tag or linker.
UniProt P84022: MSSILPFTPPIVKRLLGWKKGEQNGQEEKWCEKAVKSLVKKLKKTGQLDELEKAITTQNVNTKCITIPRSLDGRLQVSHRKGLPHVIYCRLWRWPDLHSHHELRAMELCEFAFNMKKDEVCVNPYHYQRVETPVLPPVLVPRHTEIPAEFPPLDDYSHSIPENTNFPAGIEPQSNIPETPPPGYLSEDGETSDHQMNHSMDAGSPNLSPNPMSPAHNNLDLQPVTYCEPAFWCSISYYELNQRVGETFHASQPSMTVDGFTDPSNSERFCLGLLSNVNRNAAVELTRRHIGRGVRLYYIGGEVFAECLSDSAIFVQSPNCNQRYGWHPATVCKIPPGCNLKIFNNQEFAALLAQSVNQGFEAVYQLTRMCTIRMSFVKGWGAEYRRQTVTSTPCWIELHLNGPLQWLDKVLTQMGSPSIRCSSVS
UniProt Q15796: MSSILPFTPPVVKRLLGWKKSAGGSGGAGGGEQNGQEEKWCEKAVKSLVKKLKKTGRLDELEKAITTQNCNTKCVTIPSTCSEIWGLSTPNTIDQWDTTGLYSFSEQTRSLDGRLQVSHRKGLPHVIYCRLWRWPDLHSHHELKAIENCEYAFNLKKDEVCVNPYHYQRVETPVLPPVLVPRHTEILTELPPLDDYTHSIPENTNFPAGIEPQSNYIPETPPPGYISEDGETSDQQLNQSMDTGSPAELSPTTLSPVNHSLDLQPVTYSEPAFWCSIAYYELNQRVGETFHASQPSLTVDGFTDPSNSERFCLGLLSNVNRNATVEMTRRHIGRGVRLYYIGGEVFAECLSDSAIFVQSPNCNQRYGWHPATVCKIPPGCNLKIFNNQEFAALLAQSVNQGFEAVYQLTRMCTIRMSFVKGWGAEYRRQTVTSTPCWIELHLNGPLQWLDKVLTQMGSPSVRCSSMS
UniProt Q15797: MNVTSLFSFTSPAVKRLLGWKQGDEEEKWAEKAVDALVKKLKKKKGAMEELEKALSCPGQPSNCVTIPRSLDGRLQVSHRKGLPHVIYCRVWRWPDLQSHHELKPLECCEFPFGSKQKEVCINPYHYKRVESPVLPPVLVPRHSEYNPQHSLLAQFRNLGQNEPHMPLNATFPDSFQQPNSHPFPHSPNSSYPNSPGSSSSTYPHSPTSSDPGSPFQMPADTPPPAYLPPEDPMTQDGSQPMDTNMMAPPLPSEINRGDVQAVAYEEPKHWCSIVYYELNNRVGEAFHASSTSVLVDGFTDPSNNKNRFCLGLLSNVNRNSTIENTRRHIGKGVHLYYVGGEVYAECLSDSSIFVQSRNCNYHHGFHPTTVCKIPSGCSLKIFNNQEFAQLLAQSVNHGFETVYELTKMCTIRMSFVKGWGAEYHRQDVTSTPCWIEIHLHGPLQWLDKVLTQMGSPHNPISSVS
UniProt Q13485: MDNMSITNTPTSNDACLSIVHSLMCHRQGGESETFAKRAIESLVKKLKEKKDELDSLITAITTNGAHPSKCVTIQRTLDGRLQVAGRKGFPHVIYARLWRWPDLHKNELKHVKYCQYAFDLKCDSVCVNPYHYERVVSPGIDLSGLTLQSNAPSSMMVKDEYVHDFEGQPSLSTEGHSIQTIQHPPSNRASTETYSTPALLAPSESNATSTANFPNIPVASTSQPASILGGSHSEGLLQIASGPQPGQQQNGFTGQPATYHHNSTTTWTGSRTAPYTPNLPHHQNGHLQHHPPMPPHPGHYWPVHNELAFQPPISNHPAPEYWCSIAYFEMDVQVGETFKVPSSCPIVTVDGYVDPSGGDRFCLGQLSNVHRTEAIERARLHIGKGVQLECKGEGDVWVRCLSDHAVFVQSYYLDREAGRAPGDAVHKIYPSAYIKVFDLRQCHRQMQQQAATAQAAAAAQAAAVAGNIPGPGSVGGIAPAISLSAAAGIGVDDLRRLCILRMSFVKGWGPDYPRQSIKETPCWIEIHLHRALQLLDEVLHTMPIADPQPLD
Smad3/Smad4-containing nuclear complex (Homo sapiens), one chain, as listed by the source, chain 1 of 2: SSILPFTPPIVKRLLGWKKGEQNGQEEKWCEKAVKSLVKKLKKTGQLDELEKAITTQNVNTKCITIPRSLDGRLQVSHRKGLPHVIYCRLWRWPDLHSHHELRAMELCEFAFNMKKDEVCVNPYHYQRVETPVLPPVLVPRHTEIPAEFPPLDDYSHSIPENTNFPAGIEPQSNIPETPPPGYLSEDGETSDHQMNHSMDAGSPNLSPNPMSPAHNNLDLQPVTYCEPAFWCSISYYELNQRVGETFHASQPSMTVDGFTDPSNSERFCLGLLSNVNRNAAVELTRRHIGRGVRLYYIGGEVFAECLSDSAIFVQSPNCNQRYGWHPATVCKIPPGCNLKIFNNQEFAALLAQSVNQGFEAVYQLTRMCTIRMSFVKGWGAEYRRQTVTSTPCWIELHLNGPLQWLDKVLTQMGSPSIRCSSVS
Smad3/Smad4-containing nuclear complex (Homo sapiens), one chain, as listed by the source, chain 2 of 2: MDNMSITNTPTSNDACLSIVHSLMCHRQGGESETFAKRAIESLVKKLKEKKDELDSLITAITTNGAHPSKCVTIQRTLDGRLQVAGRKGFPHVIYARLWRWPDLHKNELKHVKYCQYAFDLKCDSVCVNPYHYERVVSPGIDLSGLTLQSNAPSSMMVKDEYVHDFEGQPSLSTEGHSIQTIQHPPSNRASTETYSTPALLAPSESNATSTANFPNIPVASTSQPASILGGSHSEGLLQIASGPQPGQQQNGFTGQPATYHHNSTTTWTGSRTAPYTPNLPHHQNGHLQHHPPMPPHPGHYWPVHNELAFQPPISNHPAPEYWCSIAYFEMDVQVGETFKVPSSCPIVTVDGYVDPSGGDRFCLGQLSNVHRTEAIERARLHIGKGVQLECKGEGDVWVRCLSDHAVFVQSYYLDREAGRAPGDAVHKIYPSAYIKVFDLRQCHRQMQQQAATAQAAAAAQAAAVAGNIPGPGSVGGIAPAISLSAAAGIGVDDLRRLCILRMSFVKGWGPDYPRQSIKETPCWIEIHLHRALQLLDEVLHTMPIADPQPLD

Columns and labels:
[1] = system: Smad3/Smad4-containing nuclear complex (Homo sapiens); test: competition with a labelled probe; conditions: protein in an extract, protein details: TGFβ-induced HepG2 nuclear extract
[2] = target: GST-Smad3 full length (UniProt P84022); test: EMSA; conditions: GST fusion; non-GST Smad3 binds; purified recombinant protein; protein details: GST, E. coli; label: 33P
[3] = target: Smad3 +GAG +TID insertion of Smad2 GAG and TID (Homo sapiens) (UniProt P84022); test: EMSA; conditions: protein translated in vitro; label: 33P
[4] = target: GST-Smad2 ΔMH2 MH2 domain deleted (UniProt Q15796); test: EMSA; conditions: purified recombinant protein; protein details: GST, E. coli; label: 33P
[5] = target: GST-Smad1 ΔMH2 MH2 domain deleted (UniProt Q15797); test: EMSA; conditions: purified recombinant protein; protein details: GST, E. coli; label: 33P
[6] = target: Smad2 ΔTID deletion Ser79-Thr108 (Homo sapiens) (UniProt Q15796); test: EMSA; conditions: protein translated in vitro; label: 33P
[7] = target: Smad2 ΔGAG deletion Ser21-Gly30 (Homo sapiens) (UniProt Q15796); test: EMSA; conditions: protein translated in vitro; label: 33P
[8] = system: Smad3/Smad4-containing nuclear complex (Homo sapiens); test: EMSA; conditions: TGFβ-induced complex; supershifted by anti-Smad3 and anti-Smad4; protein in an extract; protein details: TGFβ-induced HepG2 nuclear extract; label: 33P
[9] = target: Smad3 +TID insertion of Smad2 TID (Ser79-Thr108 of Smad2) (Homo sapiens) (UniProt P84022); test: EMSA; conditions: protein translated in vitro; label: 33P
[10] = target: Smad2 ΔGAG ΔTID deletion Ser21-Gly30 and Ser79-Thr108 (Homo sapiens) (UniProt Q15796); test: EMSA; conditions: protein translated in vitro; label: 33P
[11] = target: GST-Smad4 ΔMH2 MH2 domain deleted (UniProt Q13485); test: EMSA; conditions: direct and specific; 4 mM MgCl2, 37 C; purified recombinant protein; protein details: GST, E. coli; label: 33P
[12] = target: GST-Smad3 ΔMH2 MH2 domain deleted (UniProt P84022); test: EMSA; conditions: direct and specific; 4 mM MgCl2, 37 C; purified recombinant protein; protein details: GST, E. coli; label: 33P
[13] = target: Smad3 +GAG insertion of Smad2 GAG (Ser21-Gly30 of Smad2) (Homo sapiens) (UniProt P84022); test: EMSA; conditions: protein translated in vitro; label: 33P
[14] = excess cold competitor does not displace

CCGGGATGACTCAGC (double strand) [AP-1 site]
binding result [1, 14]: no binding

CCGGTTTGGATTGAAGCCAATATG (double strand) [NF-1 site]
binding result [1, 14]: no binding

TCGAGAGCCAGACAAGGAGCCAGACAAGGAGCCAGACAC (double strand) [CAGA probe]
binding result [2]: no binding
binding result [3]: no binding
binding result [4]: no binding
binding result [5]: no binding
binding result [6]: binds
binding result [7]: no binding
binding result [8]: binds
binding result [9]: no binding
binding result [10]: binds
binding result [11]: binds
binding result [12]: binds
binding result [13]: binds

TCGAGAGCTACATAAAAAGCTACATATTTAGCTACATAC (double strand) [CAGA mutant oligonucleotide]
binding result ([1]; excess cold competitor (50 or 100 molar) does not displace, variant of CAGA probe): no binding

TCGAGGACAGGGGGCGGAGCCTC (double strand) [Sp1 site]
binding result [1, 14]: no binding

TCGAGGCTGCCCTAAAATGTGTATTCCATGGAAATGTCTGCCCTTCTCTC (double strand) [competitor oligonucleotide (FAST-1 site, inferred)]
binding result [1, 14]: no binding
